Results are given in words; binding and its absence hold for the method and conditions named. Binding seen in cells or lysates may run through a third protein. Some entries that bind do so weakly or less than the wild type. Tags and fused reporters may be left off the sequences shown.
Target: GST-STUB1 (human) (UniProt Q9UNE7)
Experiment: pull-down; GST, GST-STUB1 or GST-UHRF1 from E. coli BL21 on GST magnetic beads, incubated with HEK293T cell lysate at 4 °C for 4 h; immunoblot; only the target purified

By UniProt entry, the sequences of proteins in these tests, tags left out.
UniProt Q9UNE7: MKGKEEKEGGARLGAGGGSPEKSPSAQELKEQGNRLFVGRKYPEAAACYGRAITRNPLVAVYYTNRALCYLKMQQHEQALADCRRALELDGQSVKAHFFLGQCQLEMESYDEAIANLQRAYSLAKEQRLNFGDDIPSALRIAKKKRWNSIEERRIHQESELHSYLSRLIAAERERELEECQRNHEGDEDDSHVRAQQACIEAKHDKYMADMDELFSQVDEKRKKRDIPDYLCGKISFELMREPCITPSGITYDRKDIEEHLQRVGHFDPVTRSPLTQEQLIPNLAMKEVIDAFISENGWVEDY

binding: binds
B1: UHRF1 in HEK293T cell lysate (prey of the GST pull-down) (protein, UniProt Q96T88 1-793)
chain: MWIQVRTMDGRQTHTVDSLSRLTKVEELRRKIQELFHVEPGLQRLFYRGKQMEDGHTLFDYEVRLNDTIQLLVRQSLVLPHSTKERDSELSDTDSGCCLGQSESDKSSTHGEAAAETDSRPADEDMWDETELGLYKVNEYVDARDTNMGAWFEAQVVRVTRKAPSRDEPCSSTSRPALEEDVIYHVKYDDYPENGVVQMNSRDVRARARTIIKWQDLEVGQVVMLNYNPDNPKERGFWYDAEISRKRETRTARELYANVVLGDDSLNDCRIIFVDEVFKIERPGEGSPMVDNPMRRKSGPSCKHCKDDVNRLCRVCACHLCGGRQDPDKQLMCDECDMAFHIYCLDPPLSSVPSEDEWYCPECRNDASEVVLAGERLRESKKKAKMASATSSSQRDWGKGMACVGRTKECTIVPSNHYGPIPGIPVGTMWRFRVQVSESGVHRPHVAGIHGRSNDGAYSLVLAGGYEDDVDHGNFFTYTGSGGRDLSGNKRTAEQSCDQKLTNTNRALALNCFAPINDQEGAEAKDWRSGKPVRVVRNVKGGKNSKYAPAEGNRYDGIYKVVKYWPEKGKSGFLVWRYLLRRDDDEPGPWTKEGKDRIKKLGLTMQYPEGYLEALANREREKENSKREEEEQQEGGFASPRTGKGKWKRKSAGGGPSRAGSPRRTSKKTKVEPYSLTAQQSSLIREDKSNAKLWNEVLASLKDRPASGSPFQLFLSKVEETFQCICCQELVFRPITTVCQHNVCKDCLDRSFRAQVFSCPACRYDLGRSYAMQVNQPLQTVLNQLFPGYGNGR
